Experimental data published in patent publication US20080064729A1, “Phenethylamide derivatives with kinase inhibitory activity” (Millennium Pharmaceuticals, Inc., priority 2006, published 2008).
Some results were stated once for a whole list of compounds, not compound by compound. Some compounds share one range, which may span the group rather than tell each member.

Chains of the proteins cited; added tags and fusions are not shown.
UniProt P15056, whole entry, stated change not applied: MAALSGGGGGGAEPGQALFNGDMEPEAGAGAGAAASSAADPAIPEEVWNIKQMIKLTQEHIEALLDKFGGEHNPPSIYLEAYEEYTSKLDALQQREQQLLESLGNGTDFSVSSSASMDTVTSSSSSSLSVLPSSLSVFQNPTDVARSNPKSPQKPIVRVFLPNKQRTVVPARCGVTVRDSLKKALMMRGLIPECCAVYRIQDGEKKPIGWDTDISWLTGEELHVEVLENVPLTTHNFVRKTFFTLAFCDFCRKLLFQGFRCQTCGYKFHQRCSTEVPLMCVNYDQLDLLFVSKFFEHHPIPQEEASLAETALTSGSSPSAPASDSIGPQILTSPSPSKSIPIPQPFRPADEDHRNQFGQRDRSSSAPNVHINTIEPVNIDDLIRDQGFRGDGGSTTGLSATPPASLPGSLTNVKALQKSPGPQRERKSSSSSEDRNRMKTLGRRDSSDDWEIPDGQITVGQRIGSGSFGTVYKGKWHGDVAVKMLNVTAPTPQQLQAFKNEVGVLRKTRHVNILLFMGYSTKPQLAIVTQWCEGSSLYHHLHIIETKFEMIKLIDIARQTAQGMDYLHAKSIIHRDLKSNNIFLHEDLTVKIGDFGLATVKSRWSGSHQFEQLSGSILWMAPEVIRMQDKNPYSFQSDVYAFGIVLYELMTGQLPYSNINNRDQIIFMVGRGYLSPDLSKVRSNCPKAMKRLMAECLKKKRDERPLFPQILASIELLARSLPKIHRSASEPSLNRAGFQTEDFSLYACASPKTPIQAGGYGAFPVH

target: T1, B-Raf (V599E or Wild Type) (Homo sapiens, UniProt P15056); assay: B-Raf Flash Plate Assay; format: biochemical; details: 33P ATP, 0.5 μM ATP, 1 μM Peptide 118, V599E or Wild Type not specified
T1 construct: Enzymatically active wild-type B-Raf was purchased from Upstate (cat# 14-530); Enzymatically active mutant B-Raf(V599E) was purchased from Upstate (cat# 14-557)

SMILES | IC50 [nM]
CNC(=O)c1cc(Oc2cccc(CCNC(=O)c3ccc4snnc4c3)c2)ccn1 [Compound I-58, N-{2-[3-({2-[(methylamino)carbonyl]pyridin-4-yl}oxy)phenyl]ethyl}-1,2,3-benzothiadiazole-5-carboxamide] | ≤ 1000
CNC(=O)c1cc(Oc2cccc(CCNC(=O)c3ccc(OC)c(C)c3)c2)ccn1 [Compound I-59, 4-(3-{2-[(4-methoxy-3-methylbenzoyl)amino]ethyl}phenoxy)-N-methylpyridine-2-carboxamide] | ≤ 1000
CNC(=O)c1cc(Oc2cccc(CCNC(=O)c3cc(Cl)ccc3OC)c2)ccn1 [Compound I-64, 4-(3-{2-[(5-chloro-2-methoxybenzoyl)amino]ethyl}phenoxy)-N-methylpyridine-2-carboxamide] | ≤ 1000
CNC(=O)c1cc(Oc2ccc(CCNC(=O)c3ccc(Cl)c(C(F)(F)F)c3)cc2)ccn1 [Compound I-68, 4-[4-(2-{[4-chloro-3-(trifluoromethyl)benzoyl]amino}ethyl)phenoxy]-N-methylpyridine-2-carboxamide] | ≤ 1000
CNC(=O)c1cc(Oc2cccc(CCNC(=O)c3ccc(N(C)C)cc3)c2)ccn1 [Compound I-73, 4-[3-(2-{[4-(dimethylamino)benzoyl]amino}ethyl)phenoxy]-N-methylpyridine-2-carboxamide] | ≤ 1000
CNC(=O)c1cc(Oc2cccc(CCNC(=O)c3cc(OC)ccc3OCC(F)(F)F)c2)ccn1 [Compound I-82, 4-[3-(2-{[5-methoxy-2-(2,2,2-trifluoroethoxy)benzoyl]amino}ethyl)phenoxy]-N-methylpyridine-2-carboxamide] | ≤ 1000
CNC(=O)c1cc(Oc2cccc(CCNC(=O)c3cc(C)cc(C)c3)c2)ccn1 [Compound I-85, 4-(3-{2-[(3,5-dimethylbenzoyl)amino]ethyl}phenoxy)-N-methylpyridine-2-carboxamide] | ≤ 1000
CNC(=O)c1cc(Oc2cccc(CCNC(=O)c3ccc(F)c(F)c3)c2)ccn1 [Compound I-87, 4-(3-{2-[(3,4-difluorobenzoyl)amino]ethyl}phenoxy)-N-methylpyridine-2-carboxamide] | ≤ 1000
O=C(NCCc1cccc(Oc2ccnc(C3=NCCN3)c2)c1)c1ccc(Cl)c(C(F)(F)F)c1 [Compound I-92, 4-chloro-N-[2-(3-{[2-(4,5-dihydro-1H-imidazol-2-yl)pyridin-4-yl]oxy}phenyl)-ethyl]-3-(trifluoromethyl)benzamide] | ≤ 1000
CNC(=O)c1cc(Oc2cccc(CCNC(=O)c3cc(S(=O)(=O)N4CCOCC4)oc3C)c2)ccn1 [Compound I-98, N-methyl-4-[3-(2-{[2-methyl-5-(morpholin-4-ylsulfonyl)-3-furoyl]amino}ethyl)-phenoxy]pyridine-2-carboxamide] | ≤ 1000
CNC(=O)c1cc(Oc2cccc(CCNC(=O)c3ccc(C)c(Br)c3)c2)ccn1 [Compound I-104, 4-(3-{2-[(3-bromo-4-methylbenzoyl)amino]ethyl}phenoxy)-N-methylpyridine-2-carboxamide] | ≤ 1000
CNC(=O)c1cc(Oc2cccc(CCNC(=O)c3cccc(I)c3)c2)ccn1 [Compound I-110, 4-(3-{2-[(3-iodobenzoyl)amino]ethyl}phenoxy)-N-methylpyridine-2-carboxamide] | ≤ 1000
CNC(=O)c1cc(Oc2cccc(CCNC(=O)c3cccc(Cl)c3)c2)ccn1 [Compound I-116, 4-(3-{2-[(3-chlorobenzoyl)amino]ethyl}phenoxy)-N-methylpyridine-2-carboxamide] | ≤ 1000
CNC(=O)c1cc(Oc2cccc(CCNC(=O)c3cccc(C(F)(F)F)c3F)c2)ccn1 [Compound I-121, 4-[3-(2-{[2-fluoro-3-(trifluoromethyl)benzoyl]amino}ethyl)phenoxy]-N-methylpyridine-2-carboxamide] | ≤ 1000
CNC(=O)c1cc(Oc2cccc(CCNC(=O)c3cc(-c4ccccc4)nc4ccc(OC)cc34)c2)ccn1 [Compound I-122, 6-methoxy-N-{2-[3-({2-[(methylamino)carbonyl]pyridin-4-yl}oxy)phenyl]ethyl}-2-phenylquinoline-4-carboxamide] | ≤ 1000

same assay, conditions: tested at a concentration of 10 μM

SMILES | inhibition
CCN(CC)c1ccc(C(=O)NCCc2cccc(Oc3ccnc(C(=O)NC)c3)c2)cc1 [Compound I-60, 4-[3-(2-{[4-(diethylamino)benzoyl]amino}ethyl)phenoxy]-N-methylpyridine-2-carboxamide] | 40-68%
CCOc1ccc(C(=O)NCCc2cccc(Oc3ccnc(C(=O)NC)c3)c2)cc1OCC [Compound I-65, 4-(3-{2-[(3,4-diethoxybenzoyl)amino]ethyl}phenoxy)-N-methylpyridine-2-carboxamide] | 40-68%
CNC(=O)c1cc(Oc2cccc(CCNC(=O)c3ccc(OC(C)=O)cc3)c2)ccn1 [Compound I-66, 4-[({2-[3-({2-[(methylamino)carbonyl]pyridin-4-yl}oxy)phenyl]ethyl}-amino)carbonyl]phenyl acetate] | 40-68%
CNC(=O)c1cc(Oc2cccc(CCNC(=O)c3cccnc3OC)c2)ccn1 [Compound I-69, 4-[3-(2-{[(2-methoxypyridin-3-yl)carbonyl]amino}ethyl)phenoxy]-N-methylpyridine-2-carboxamide] | 40-68%
CNC(=O)c1cc(Oc2cccc(CCNC(=O)c3ccc(Br)cc3C)c2)ccn1 [Compound I-71, 4-(3-{2-[(4-bromo-2-methylbenzoyl)amino]ethyl}phenoxy)-N-methylpyridine-2-carboxamide] | 40-68%
CNC(=O)c1cc(Oc2cccc(CCNC(=O)c3ccc(F)cc3C(F)(F)F)c2)ccn1 [Compound I-75, 4-[3-(2-{[4-fluoro-2-(trifluoromethyl)benzoyl]amino}ethyl)phenoxy]-N-methylpyridine-2-carboxamide] | 40-68%
CNC(=O)c1cc(Oc2cccc(CCNC(=O)c3ccccc3OC)c2)ccn1 [Compound I-78, 4-(3-{2-[(2-methoxybenzoyl)amino]ethyl}phenoxy)-N-methylpyridine-2-carboxamide] | 40-68%
CNC(=O)c1cc(Oc2cccc(CCNC(=O)c3ccc(-n4cccc4)cc3)c2)ccn1 [Compound I-79, N-methyl-4-[3-(2-{[4-(1H-pyrrol-1-yl)benzoyl]amino}ethyl)phenoxy]pyridine-2-carboxamide] | 40-68%
CNC(=O)c1cc(Oc2cccc(CCNC(=O)c3cc(Br)ccc3Cl)c2)ccn1 [Compound I-81, 4-(3-{2-[(5-bromo-2-chlorobenzoyl)amino]ethyl}phenoxy)-N-methylpyridine-2-carboxamide] | 40-68%
CNC(=O)c1cc(Oc2cccc(CCNC(=O)c3ccc(-c4ccccn4)s3)c2)ccn1 [Compound I-83, N-methyl-4-[3-(2-{[(5-pyridin-2-yl-2-thienyl)carbonyl]amino}ethyl)-phenoxy]pyridine-2-carboxamide] | 40-68%
CNC(=O)c1cc(Oc2cccc(CCNC(=O)c3csc(C)n3)c2)ccn1 [Compound I-88, N-methyl-4-[3-(2-{[(2-methyl-1,3-thiazol-4-yl)carbonyl]amino}ethyl)-phenoxy]pyridine-2-carboxamide] | 40-68%
CNC(=O)c1cc(Oc2cccc(CCNC(=O)c3cc(C)n(Cc4ccncc4)c3C)c2)ccn1 [Compound I-99, 4-{3-[2-({[2,5-dimethyl-1-(pyridin-4-ylmethyl)-1H-pyrrol-3-yl]carbonyl}-amino)ethyl]phenoxy}-N-methylpyridine-2-carboxamide] | 40-68%
CNC(=O)c1cc(Oc2cccc(CCNC(=O)c3ccc(OCC(F)(F)F)nc3)c2)ccn1 [Compound I-100, N-methyl-4-{3-[2-({[6-(2,2,2-trifluoroethoxy)pyridin-3-yl]carbonyl}amino)ethyl]-phenoxy}pyridine-2-carboxamide] | 40-68%
CNC(=O)c1cc(Oc2cccc(CCNC(=O)c3cc(Cl)ccc3Cl)c2)ccn1 [Compound I-102, 4-(3-{2-[(2,5-dichlorobenzoyl)amino]ethyl}phenoxy)-N-methylpyridine-2-carboxamide] | 40-68%
CNC(=O)c1cc(Oc2cccc(CCNC(=O)c3ccc(S(N)(=O)=O)n3C)c2)ccn1 [Compound I-105, 4-{3-[2-({[5-(aminosulfonyl)-1-methyl-1H-pyrrol-2-yl]carbonyl}amino)ethyl]-phenoxy}-N-methylpyridine-2-carboxamide] | 40-68%
CCCc1ccc(C(=O)NCCc2cccc(Oc3ccnc(C(=O)NC)c3)c2)cc1 [Compound I-106, N-methyl-4-(3-{2-[(4-propylbenzoyl)amino]ethyl}phenoxy)pyridine-2-carboxamide] | 40-68%
CNC(=O)c1cc(Oc2cccc(CCNC(=O)c3cnc(-c4ccccc4)nc3C)c2)ccn1 [Compound I-111, 4-methyl-N-{2-[3-({2-[(methylamino)carbonyl]pyridin-4-yl}oxy)phenyl]ethyl}-2-phenylpyrimidine-5-carboxamide] | 40-68%
CNC(=O)c1cc(Oc2cccc(CCNC(=O)c3ccc(C(=O)OC)cc3)c2)ccn1 [Compound I-112, methyl 4-[({2-[3-({2-[(methylamino)carbonyl]pyridin-4-yl}oxy)phenyl]ethyl}-amino)carbonyl]benzoate] | 40-68%
CNC(=O)c1cc(Oc2cccc(CCNC(=O)c3cc(OC)c(OC)cc3OC)c2)ccn1 [Compound I-118, N-methyl-4-(3-{2-[(2,4,5-trimethoxybenzoyl)amino]ethyl}phenoxy)pyridine-2-carboxamide] | 40-68%
CNC(=O)c1cc(Oc2cccc(CCNC(=O)c3cc(F)c(Cl)cc3Cl)c2)ccn1 [Compound I-119, 4-(3-{2-[(2,4-dichloro-5-fluorobenzoyl)amino]ethyl}phenoxy)-N-methylpyridine-2-carboxamide] | 40-68%
CNC(=O)c1cc(Oc2cccc(CCNC(=O)c3cc(F)c(F)cc3Cl)c2)ccn1 [Compound I-124, 4-(3-{2-[(2-chloro-4,5-difluorobenzoyl)amino]ethyl}phenoxy)-N-methylpyridine-2-carboxamide] | 40-68%
